From the supplement of paper PMC8858631
Structures can show the parent of a compound that is named as a salt. Some of the results follow. No stated cut-off is given here; in the data, active = 0.5 or less and inactive = the rest. Single values are uncertain, as repeats are few or missing.

System: SK-MEL-28
Experiment: EEF2K protein level normalised to actin (western blot) after treatment (ratio (EEF2K/Actin)); higher = more EEF2K protein remaining (less EEF2K suppression)
Details: 5 µM; 24 h

Row | Compound | EEF2K protein level normalised to actin
1 | O=C(c1cc(Cc2n[nH]c(=O)c3ccccc23)ccc1F)N1CCN(C(=O)C2CC2)CC1 | inactive: 1.22
2 | O=S1(=O)CCN(CN2CCS(=O)(=O)NC2)CN1 [Taurolidine] | inactive: 1.2
3 | O=NN(CCCl)C(=O)NCCCl [Carmustine] | inactive: 1.2
4 | C[C@H](Oc1cc(-c2cnn(C3CCNCC3)c2)cnc1N)c1c(Cl)ccc(F)c1Cl [(S)-crizotinib] | inactive: 2.89
5 | c1cc(CN2CCCNCCNCCCNCC2)ccc1CN1CCCNCCNCCCNCC1 [Plerixafor 8HCl (AMD3100 8HCl)] | inactive: 0.64
6 | N#CC[C@H](C1CCCC1)n1cc(-c2ncnc3[nH]ccc23)cn1 | inactive: 1.98
7 | CC(C)C[C@H](NC(=O)[C@H](Cc1ccccc1)NC(=O)c1cnccn1)B(O)O [Bortezomib (PS-341)] | active: 0.07
8 | Nc1nc(Cl)nc2c1ncn2[C@@H]1O[C@H](CO)[C@@H](O)[C@@H]1F [Clofarabine] | active: 0.31
9 | Clc1ccc(C(c2ccccc2Cl)C(Cl)Cl)cc1 (stereo unspecified) [Mitotane] | inactive: 1.01
10 | O=C(Nc1cnn2ccc(N3CCC[C@@H]3c3cc(F)ccc3F)nc12)N1CC[C@H](O)C1 [Larotrectinib (LOXO-101) sulfate] | inactive: 0.92
11 | CC[C@]1(O)C[C@H]2CN(CCc3c([nH]c4ccccc34)[C@@](C(=O)OC)(c3cc4c(cc3OC)N(C=O)[C@H]3[C@@](O)(C(=O)OC)[C@H](OC(C)=O)[C@]5(CC)C=CCN6CC[C@]43[C@@H]65)C2)C1 [Vincristine sulfate] | inactive: 0.86

From compound 4 up to 5, copied from above:
Row | Compound | EEF2K protein level normalised to actin
4 | C[C@H](Oc1cc(-c2cnn(C3CCNCC3)c2)cnc1N)c1c(Cl)ccc(F)c1Cl [(S)-crizotinib] | inactive: 2.89
5 | c1cc(CN2CCCNCCNCCCNCC2)ccc1CN1CCCNCCNCCCNCC1 [Plerixafor 8HCl (AMD3100 8HCl)] | inactive: 0.64
